{"source": "paper PMC3514216", "about": "“SRC Homology 2 Domain Binding Sites in Insulin, IGF-1 and FGF receptor mediated signaling networks reveal an extensive potential interactome” (Cell Communication and Signaling : CCS, 2012)", "key": {"[1]": {"target": "T1, FRS2 (Y349) phosphopeptide ALLNpYENLPSL, SPOT array", "T1 sequence (peptide, phosphotyrosine at position 5 (Y349); membrane-bound)": "ALLNYENLPSL", "test": "peptide or protein array; SPOT array of 192 membrane-bound 11-mer phosphotyrosine peptides; GST-SH2 0.25 uM in TBS-T with 5% nonfat milk and 1 mM DTT, 1.5 h, room temperature; anti-GST and Alexa-Fluor-680 secondary, Li-Cor Odyssey; array positive >3X the array mean, array negative <1X, indeterminate between; both purified"}, "[2]": {"target": "T2, FRS2 (Y196) phosphopeptide QVHTpYVNTTGV, SPOT array", "T2 sequence (peptide, phosphotyrosine at position 5 (Y196); membrane-bound)": "QVHTYVNTTGV", "test": "peptide or protein array; SPOT array of 192 membrane-bound 11-mer phosphotyrosine peptides; GST-SH2 0.25 uM in TBS-T with 5% nonfat milk and 1 mM DTT, 1.5 h, room temperature; anti-GST and Alexa-Fluor-680 secondary, Li-Cor Odyssey; array positive >3X the array mean, array negative <1X, indeterminate between; both purified"}, "[3]": {"target": "T3, p62DOK1 (Y398) phosphopeptide KEEGpYELPYNP, SPOT array", "T3 sequence (peptide, phosphotyrosine at position 5 (Y398); membrane-bound)": "KEEGYELPYNP", "test": "peptide or protein array; SPOT array of 192 membrane-bound 11-mer phosphotyrosine peptides; GST-SH2 0.25 uM in TBS-T with 5% nonfat milk and 1 mM DTT, 1.5 h, room temperature; anti-GST and Alexa-Fluor-680 secondary, Li-Cor Odyssey; array positive >3X the array mean, array negative <1X, indeterminate between; both purified"}, "[4]": {"target": "T4, p130Cas (Y664) phosphopeptide WMEDpYDYVHLQ, SPOT array", "T4 sequence (peptide, phosphotyrosine at position 5 (Y664); membrane-bound)": "WMEDYDYVHLQ", "test": "peptide or protein array; SPOT array of 192 membrane-bound 11-mer phosphotyrosine peptides; GST-SH2 0.25 uM in TBS-T with 5% nonfat milk and 1 mM DTT, 1.5 h, room temperature; anti-GST and Alexa-Fluor-680 secondary, Li-Cor Odyssey; array positive >3X the array mean, array negative <1X, indeterminate between; both purified"}, "[5]": {"target": "PDGFRb (Y1021) phosphopeptide ADNDpYIIPLPD, SPOT array", "test": "peptide or protein array; SPOT array of 192 membrane-bound 11-mer phosphotyrosine peptides; GST-SH2 0.25 uM in TBS-T with 5% nonfat milk and 1 mM DTT, 1.5 h, room temperature; anti-GST and Alexa-Fluor-680 secondary, Li-Cor Odyssey; array positive >3X the array mean, array negative <1X, indeterminate between; both purified"}, "[6]": {"target": "T5, InsR (Y1185,89,90) triply phosphorylated peptide TRDIpYETDpYpYR, SPOT array", "T5 sequence (peptide, phosphotyrosine at positions 5, 9 and 10 (Y1185, Y1189, Y1190); membrane-bound)": "TRDIYETDYYR", "test": "peptide or protein array; SPOT array of 192 membrane-bound 11-mer phosphotyrosine peptides; GST-SH2 0.25 uM in TBS-T with 5% nonfat milk and 1 mM DTT, 1.5 h, room temperature; anti-GST and Alexa-Fluor-680 secondary, Li-Cor Odyssey; array positive >3X the array mean, array negative <1X, indeterminate between; both purified"}, "[7]": {"target": "T6, IRS-1 (Y1179) phosphopeptide NGLNpYIDLDLV, SPOT array", "T6 sequence (peptide, phosphotyrosine at position 5 (Y1179); membrane-bound)": "NGLNYIDLDLV", "test": "peptide or protein array; SPOT array of 192 membrane-bound 11-mer phosphotyrosine peptides; GST-SH2 0.25 uM in TBS-T with 5% nonfat milk and 1 mM DTT, 1.5 h, room temperature; anti-GST and Alexa-Fluor-680 secondary, Li-Cor Odyssey; array positive >3X the array mean, array negative <1X, indeterminate between; both purified"}, "[8]": {"target": "T7, FRS2 (Y436) phosphopeptide RQLNpYIQVDLE, SPOT array", "T7 sequence (peptide, phosphotyrosine at position 5 (Y436); membrane-bound)": "RQLNYIQVDLE", "test": "peptide or protein array; SPOT array of 192 membrane-bound 11-mer phosphotyrosine peptides; GST-SH2 0.25 uM in TBS-T with 5% nonfat milk and 1 mM DTT, 1.5 h, room temperature; anti-GST and Alexa-Fluor-680 secondary, Li-Cor Odyssey; array positive >3X the array mean, array negative <1X, indeterminate between; both purified"}, "[9]": {"target": "IRS-1 (Y896) phosphopeptide SPGEpYVNIEFG, SPOT array", "test": "peptide or protein array; SPOT array of 192 membrane-bound 11-mer phosphotyrosine peptides; GST-SH2 0.25 uM in TBS-T with 5% nonfat milk and 1 mM DTT, 1.5 h, room temperature; anti-GST and Alexa-Fluor-680 secondary, Li-Cor Odyssey; array positive >3X the array mean, array negative <1X, indeterminate between; both purified"}, "[10]": {"target": "T8, IRS-2 (Y540) phosphopeptide GGEFpYGYMTMD, SPOT array", "T8 sequence (peptide, phosphotyrosine at position 5 (Y540); membrane-bound)": "GGEFYGYMTMD", "test": "peptide or protein array; SPOT array of 192 membrane-bound 11-mer phosphotyrosine peptides; GST-SH2 0.25 uM in TBS-T with 5% nonfat milk and 1 mM DTT, 1.5 h, room temperature; anti-GST and Alexa-Fluor-680 secondary, Li-Cor Odyssey; array positive >3X the array mean, array negative <1X, indeterminate between; both purified"}, "[11]": {"target": "FGFR3 (Y760) phosphopeptide STDEpYLDLSAP, SPOT array", "test": "peptide or protein array; SPOT array of 192 membrane-bound 11-mer phosphotyrosine peptides; GST-SH2 0.25 uM in TBS-T with 5% nonfat milk and 1 mM DTT, 1.5 h, room temperature; anti-GST and Alexa-Fluor-680 secondary, Li-Cor Odyssey; array positive >3X the array mean, array negative <1X, indeterminate between; both purified"}, "[12]": {"target": "FGFR3 (Y760) phosphopeptide STDEpYLDLSAP, Rhodamine B-labelled", "test": "fluorescence polarisation; Rhodamine B-labelled peptide in solution with SH2 domain; Beacon 2000; as previously described [40]; both purified"}, "[13]": {"target": "T9, p62DOK1 (Y398) phosphopeptide KEEGpYELPYNP, Rhodamine B-labelled", "T9 sequence (peptide, phosphotyrosine at position 5 (Y398); Rhodamine B label)": "KEEGYELPYNP", "test": "fluorescence polarisation; Rhodamine B-labelled peptide in solution with SH2 domain; Beacon 2000; as previously described [40]; both purified"}, "[14]": {"target": "T10, p130Cas (Y362) phosphopeptide AEDVpYDVPPPA, Rhodamine B-labelled", "T10 sequence (peptide, phosphotyrosine at position 5 (Y362); Rhodamine B label)": "AEDVYDVPPPA", "test": "fluorescence polarisation; Rhodamine B-labelled peptide in solution with SH2 domain; Beacon 2000; as previously described [40]; both purified"}, "[15]": {"target": "T11, FGFR1 (Y463) phosphopeptide GVSEpYELPEDP, Rhodamine B-labelled", "T11 sequence (peptide, phosphotyrosine at position 5 (Y463); Rhodamine B label)": "GVSEYELPEDP", "test": "fluorescence polarisation; Rhodamine B-labelled peptide in solution with SH2 domain; Beacon 2000; as previously described [40]; both purified"}, "[16]": {"target": "T12, p62DOK1 (Y315) phosphopeptide QDSLpYSDPLDS, SPOT array", "T12 sequence (peptide, phosphotyrosine at position 5 (Y315); membrane-bound)": "QDSLYSDPLDS", "test": "peptide or protein array; SPOT array of 192 membrane-bound 11-mer phosphotyrosine peptides; GST-SH2 0.25 uM in TBS-T with 5% nonfat milk and 1 mM DTT, 1.5 h, room temperature; anti-GST and Alexa-Fluor-680 secondary, Li-Cor Odyssey; array positive >3X the array mean, array negative <1X, indeterminate between; both purified"}, "[17]": {"target": "T13, p62DOK1 (Y296) phosphopeptide PPALpYAEPLDS, SPOT array", "T13 sequence (peptide, phosphotyrosine at position 5 (Y296); membrane-bound)": "PPALYAEPLDS", "test": "peptide or protein array; SPOT array of 192 membrane-bound 11-mer phosphotyrosine peptides; GST-SH2 0.25 uM in TBS-T with 5% nonfat milk and 1 mM DTT, 1.5 h, room temperature; anti-GST and Alexa-Fluor-680 secondary, Li-Cor Odyssey; array positive >3X the array mean, array negative <1X, indeterminate between; both purified"}, "[18]": {"target": "T14, PLCγ1 (Y783) phosphopeptide NPGFpYVEANPM, SPOT array", "T14 sequence (peptide, phosphotyrosine at position 5 (Y783); membrane-bound)": "NPGFYVEANPM", "test": "peptide or protein array; SPOT array of 192 membrane-bound 11-mer phosphotyrosine peptides; GST-SH2 0.25 uM in TBS-T with 5% nonfat milk and 1 mM DTT, 1.5 h, room temperature; anti-GST and Alexa-Fluor-680 secondary, Li-Cor Odyssey; array positive >3X the array mean, array negative <1X, indeterminate between; both purified"}}, "note": "These are yes or no findings as the source states them, for the method shown. For part of these data: A result given as binding can be weak or reduced; the word gives no strength. For part of these data: Sequences can lack the tags named with a protein.", "data": [{"substance": "GST-PI3K1_C SH2 domain (human) (domain or fragment)", "values": [{"measurement": "binding", "setting": "[1]", "result": "binds"}, {"measurement": "binding", "setting": "[2]", "result": "binds"}]}, {"substance": "GST-PI3K1_N SH2 domain (human) (domain or fragment)", "values": [{"measurement": "binding", "setting": "[3]", "result": "binds"}, {"measurement": "binding", "setting": "[4]", "result": "binds"}]}, {"substance": "GST-PLCγ1_C SH2 domain (human) (domain or fragment)", "values": [{"measurement": "binding", "setting": "[5]", "result": "binds"}, {"measurement": "binding", "setting": "[6]", "result": "binds"}, {"measurement": "binding", "setting": "[7]", "result": "binds"}, {"measurement": "binding", "setting": "[8]", "result": "binds"}, {"measurement": "binding", "setting": "[9]", "result": "binds"}, {"measurement": "binding", "setting": "[10]", "result": "binds"}]}, {"substance": "GST-PLCγ2_C SH2 domain (human) (domain or fragment)", "values": [{"measurement": "binding", "setting": "[11]", "result": "no binding (tested: 0.25 uM)"}, {"measurement": "binding", "setting": "[9]", "result": "binds"}]}, {"substance": "GST-PLCγ2_N SH2 domain (human) (domain or fragment)", "values": [{"measurement": "binding", "setting": "[12]", "result": "no binding (tested: >50 uM)"}, {"measurement": "binding", "setting": "[11]", "result": "no binding (tested: 0.25 uM)"}]}, {"substance": "GST-PLCγ_N SH2 domain (human) (domain or fragment)", "values": [{"measurement": "binding", "setting": "[5]", "result": "binds"}]}, {"substance": "GST-Ptpn11_N SH2 domain (human) (domain or fragment)", "values": [{"measurement": "binding", "setting": "[13]", "result": "no binding (tested: >50 uM)"}, {"measurement": "binding", "setting": "[14]", "result": "no binding (tested: >50 uM)"}, {"measurement": "binding", "setting": "[8]", "result": "binds"}]}, {"substance": "GST-Rasa1_C SH2 domain (human) (domain or fragment)", "values": [{"measurement": "binding", "setting": "[15]", "result": "no binding (tested: >17 uM)"}, {"measurement": "binding", "setting": "[12]", "result": "no binding (tested: >17 uM)"}, {"measurement": "binding", "setting": "[16]", "result": "binds"}, {"measurement": "binding", "setting": "[17]", "result": "binds"}, {"measurement": "binding", "setting": "[3]", "result": "binds"}, {"measurement": "binding", "setting": "[9]", "result": "binds"}, {"measurement": "binding", "setting": "[4]", "result": "binds"}]}, {"substance": "GST-Rasa1_N SH2 domain (human) (domain or fragment)", "values": [{"measurement": "binding", "setting": "[17]", "result": "binds"}, {"measurement": "binding", "setting": "[3]", "result": "binds"}, {"measurement": "binding", "setting": "[7]", "result": "binds"}, {"measurement": "binding", "setting": "[8]", "result": "binds"}, {"measurement": "binding", "setting": "[9]", "result": "binds"}, {"measurement": "binding", "setting": "[4]", "result": "binds"}]}, {"substance": "GST-Syk_C SH2 domain (human) (domain or fragment)", "values": [{"measurement": "binding", "setting": "[8]", "result": "binds"}, {"measurement": "binding", "setting": "[9]", "result": "binds"}]}, {"substance": "GST-Zap70_N SH2 domain (human) (domain or fragment)", "values": [{"measurement": "binding", "setting": "[16]", "result": "binds"}, {"measurement": "binding", "setting": "[17]", "result": "binds"}, {"measurement": "binding", "setting": "[18]", "result": "binds"}]}]}
